Details in all cases: stereoisomer not certain
For experiment [1], the system named is T1, OR2W1.
T1 sequence (whole entry): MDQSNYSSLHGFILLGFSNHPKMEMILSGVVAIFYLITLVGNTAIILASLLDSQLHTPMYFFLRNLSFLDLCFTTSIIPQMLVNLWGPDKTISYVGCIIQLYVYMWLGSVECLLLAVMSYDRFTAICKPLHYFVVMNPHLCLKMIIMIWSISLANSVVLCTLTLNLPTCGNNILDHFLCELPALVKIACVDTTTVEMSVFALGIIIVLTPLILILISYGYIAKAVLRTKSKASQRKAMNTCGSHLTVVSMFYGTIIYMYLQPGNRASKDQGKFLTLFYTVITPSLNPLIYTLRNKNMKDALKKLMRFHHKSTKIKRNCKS
Put shortly: (§1)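 Whether a receptor–molecule pair is responsive (active) rests on the original authors' judgment that its measured signal was statistically different from baseline. Pairs without that judgment are non-responsive (inactive). Sources used varied assay methods, commonly transient luciferase assays in mammalian cell lines.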

Experiment [2] concerns T2, OR2W3.
T2 sequence (whole entry): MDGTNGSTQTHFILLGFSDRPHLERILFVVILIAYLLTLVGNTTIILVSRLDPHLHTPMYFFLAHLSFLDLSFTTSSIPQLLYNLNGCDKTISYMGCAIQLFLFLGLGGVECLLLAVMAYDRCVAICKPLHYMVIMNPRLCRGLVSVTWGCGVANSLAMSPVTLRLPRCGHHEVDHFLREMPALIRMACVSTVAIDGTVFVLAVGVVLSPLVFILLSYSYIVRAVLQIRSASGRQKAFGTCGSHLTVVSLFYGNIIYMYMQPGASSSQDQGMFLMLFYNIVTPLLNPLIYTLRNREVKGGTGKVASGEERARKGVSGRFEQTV
In outline:
as §1

The target in experiment [3] is T3, OR2W5P (Homo sapiens) (UniProt A6NFC9).
T3 sequence (whole entry): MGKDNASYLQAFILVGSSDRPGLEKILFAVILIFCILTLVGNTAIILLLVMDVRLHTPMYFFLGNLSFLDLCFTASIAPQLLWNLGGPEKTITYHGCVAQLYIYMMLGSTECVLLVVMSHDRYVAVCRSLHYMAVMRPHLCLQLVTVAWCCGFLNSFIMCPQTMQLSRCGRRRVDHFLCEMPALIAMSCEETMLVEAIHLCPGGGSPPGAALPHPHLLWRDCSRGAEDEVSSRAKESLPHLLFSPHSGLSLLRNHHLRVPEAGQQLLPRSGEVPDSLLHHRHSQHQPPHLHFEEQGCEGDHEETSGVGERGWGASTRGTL
Put shortly: as §1

The subject of experiment [4] is T4, OR2Y1.
T4 sequence (whole entry): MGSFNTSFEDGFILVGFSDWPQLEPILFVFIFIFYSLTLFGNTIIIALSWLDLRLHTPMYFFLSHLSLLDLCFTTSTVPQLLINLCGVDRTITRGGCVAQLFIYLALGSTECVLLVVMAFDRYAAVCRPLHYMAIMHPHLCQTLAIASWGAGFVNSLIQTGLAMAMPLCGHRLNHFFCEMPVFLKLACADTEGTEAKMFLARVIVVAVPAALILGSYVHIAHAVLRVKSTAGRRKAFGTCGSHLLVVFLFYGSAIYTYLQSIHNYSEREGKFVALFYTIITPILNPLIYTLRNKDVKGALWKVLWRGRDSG
In outline: as §1

Experiment [5] deals with T5, OR2Z1 (Homo sapiens) (UniProt Q8NG97).
T5 sequence (whole entry): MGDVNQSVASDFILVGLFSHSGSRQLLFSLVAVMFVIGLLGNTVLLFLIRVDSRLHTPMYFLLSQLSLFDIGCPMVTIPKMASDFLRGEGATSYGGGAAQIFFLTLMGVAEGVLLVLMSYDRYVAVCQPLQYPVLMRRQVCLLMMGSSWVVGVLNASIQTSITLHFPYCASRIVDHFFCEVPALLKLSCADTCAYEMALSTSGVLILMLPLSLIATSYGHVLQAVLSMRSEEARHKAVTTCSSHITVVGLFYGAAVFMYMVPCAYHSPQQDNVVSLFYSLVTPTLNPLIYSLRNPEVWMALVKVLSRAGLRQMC
In outline:
as §1

The target of experiment [6] is T6, OR3A1 (Homo sapiens) (UniProt P47881).
T6 sequence (whole entry): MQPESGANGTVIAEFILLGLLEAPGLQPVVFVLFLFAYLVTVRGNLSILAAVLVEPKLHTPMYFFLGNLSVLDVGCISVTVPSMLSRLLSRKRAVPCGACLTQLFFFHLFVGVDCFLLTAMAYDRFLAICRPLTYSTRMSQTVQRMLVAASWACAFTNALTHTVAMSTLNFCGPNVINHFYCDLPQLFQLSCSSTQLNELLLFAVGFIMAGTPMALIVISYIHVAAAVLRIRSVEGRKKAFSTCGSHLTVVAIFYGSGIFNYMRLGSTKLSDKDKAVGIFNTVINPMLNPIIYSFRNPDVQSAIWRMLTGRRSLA
In outline: as §1

For experiment [7], the target named is T7, OR3A2 (Homo sapiens) (UniProt P47893).
T7 sequence (whole entry): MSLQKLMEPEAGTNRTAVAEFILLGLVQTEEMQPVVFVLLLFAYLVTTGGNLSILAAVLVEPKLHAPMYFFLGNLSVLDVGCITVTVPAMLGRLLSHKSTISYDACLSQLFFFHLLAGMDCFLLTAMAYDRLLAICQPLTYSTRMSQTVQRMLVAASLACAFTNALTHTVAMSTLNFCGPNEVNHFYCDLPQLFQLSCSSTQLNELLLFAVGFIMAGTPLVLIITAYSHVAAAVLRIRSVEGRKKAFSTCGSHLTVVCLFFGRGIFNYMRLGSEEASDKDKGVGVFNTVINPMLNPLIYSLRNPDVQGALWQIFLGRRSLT
In outline:
as §1

The test system of experiment [8] is T8, OR3A3.
T8 sequence (whole entry): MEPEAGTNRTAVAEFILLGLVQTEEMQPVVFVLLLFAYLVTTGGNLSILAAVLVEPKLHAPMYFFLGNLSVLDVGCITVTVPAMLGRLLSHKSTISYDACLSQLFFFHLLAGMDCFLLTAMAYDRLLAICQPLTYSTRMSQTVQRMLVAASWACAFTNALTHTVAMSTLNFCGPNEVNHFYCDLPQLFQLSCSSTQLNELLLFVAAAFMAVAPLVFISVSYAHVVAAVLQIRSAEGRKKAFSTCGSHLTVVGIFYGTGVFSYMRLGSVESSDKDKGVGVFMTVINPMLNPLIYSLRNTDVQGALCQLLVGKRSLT
In outline:
as §1

Experiment [9] relates to T9, OR3A4.
T9 sequence (whole entry): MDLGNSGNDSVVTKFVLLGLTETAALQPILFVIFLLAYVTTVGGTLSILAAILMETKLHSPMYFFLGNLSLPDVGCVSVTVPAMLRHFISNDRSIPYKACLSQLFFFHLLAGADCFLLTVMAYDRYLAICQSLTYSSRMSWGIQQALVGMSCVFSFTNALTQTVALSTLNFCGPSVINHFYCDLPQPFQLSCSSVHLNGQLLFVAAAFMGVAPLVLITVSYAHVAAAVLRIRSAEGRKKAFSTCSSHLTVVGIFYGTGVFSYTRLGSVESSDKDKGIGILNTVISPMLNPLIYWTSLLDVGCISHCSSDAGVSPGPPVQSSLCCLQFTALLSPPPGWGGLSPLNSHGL
Put shortly: as §1

The target of experiment [10] is T10, OR4A16 (Homo sapiens) (UniProt Q8NH70).
T10 sequence (whole entry): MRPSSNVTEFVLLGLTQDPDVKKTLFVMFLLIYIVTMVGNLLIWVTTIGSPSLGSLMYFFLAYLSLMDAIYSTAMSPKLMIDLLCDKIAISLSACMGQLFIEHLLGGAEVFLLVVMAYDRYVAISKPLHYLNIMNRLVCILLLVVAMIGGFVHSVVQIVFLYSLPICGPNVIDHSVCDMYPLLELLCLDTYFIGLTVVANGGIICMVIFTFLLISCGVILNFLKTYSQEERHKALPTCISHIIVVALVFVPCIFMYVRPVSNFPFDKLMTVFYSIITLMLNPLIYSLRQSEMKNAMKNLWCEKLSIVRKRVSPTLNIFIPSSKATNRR
In outline:
as §1

Experiment [11] addresses T11, OR4A4P (Homo sapiens) (UniProt Q8NGN8).
T11 sequence (whole entry): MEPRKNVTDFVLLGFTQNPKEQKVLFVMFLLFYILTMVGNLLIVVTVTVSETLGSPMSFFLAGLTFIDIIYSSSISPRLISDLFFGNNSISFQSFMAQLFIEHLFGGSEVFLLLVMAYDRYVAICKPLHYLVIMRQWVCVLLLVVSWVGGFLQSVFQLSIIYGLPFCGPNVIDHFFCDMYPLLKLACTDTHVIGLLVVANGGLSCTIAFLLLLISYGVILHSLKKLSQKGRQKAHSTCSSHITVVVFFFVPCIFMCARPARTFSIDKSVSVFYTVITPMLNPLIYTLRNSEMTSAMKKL
In outline: as §1

Experiment [12] deals with T12, OR4A5 (Homo sapiens) (UniProt Q8NH83).
T12 sequence (whole entry): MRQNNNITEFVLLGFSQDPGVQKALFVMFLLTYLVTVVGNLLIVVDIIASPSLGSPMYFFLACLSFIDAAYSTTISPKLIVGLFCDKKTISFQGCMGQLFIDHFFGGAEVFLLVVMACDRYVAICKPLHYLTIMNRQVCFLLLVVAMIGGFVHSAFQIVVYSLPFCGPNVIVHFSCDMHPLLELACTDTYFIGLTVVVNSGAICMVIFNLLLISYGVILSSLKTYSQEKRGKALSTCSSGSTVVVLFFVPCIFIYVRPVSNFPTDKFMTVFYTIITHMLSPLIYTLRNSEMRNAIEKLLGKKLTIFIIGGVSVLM
Put shortly: as §1

Experiment [13] concerns T13, OR4A5.
T13 sequence (whole entry): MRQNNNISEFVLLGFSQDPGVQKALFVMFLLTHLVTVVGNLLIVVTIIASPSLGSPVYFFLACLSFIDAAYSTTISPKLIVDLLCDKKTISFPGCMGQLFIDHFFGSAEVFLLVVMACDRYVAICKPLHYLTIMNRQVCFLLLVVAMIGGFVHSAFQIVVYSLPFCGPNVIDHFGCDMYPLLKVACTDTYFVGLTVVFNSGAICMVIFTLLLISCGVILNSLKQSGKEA
In outline: as §1

In experiment [14] the target is T14, OR4B1 (Homo sapiens) (UniProt Q8NGF8).
T14 sequence (whole entry): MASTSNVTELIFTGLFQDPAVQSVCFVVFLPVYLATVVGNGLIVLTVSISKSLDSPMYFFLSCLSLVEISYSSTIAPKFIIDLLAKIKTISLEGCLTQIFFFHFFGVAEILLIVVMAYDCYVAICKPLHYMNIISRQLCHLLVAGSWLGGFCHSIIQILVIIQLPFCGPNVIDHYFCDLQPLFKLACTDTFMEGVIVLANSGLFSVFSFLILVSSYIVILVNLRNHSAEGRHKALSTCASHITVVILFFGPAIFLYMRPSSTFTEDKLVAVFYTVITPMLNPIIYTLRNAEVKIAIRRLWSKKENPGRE
In outline:
as §1

The target of experiment [15] is T15, OR4C11 (Homo sapiens) (UniProt Q6IEV9).
T15 sequence (whole entry): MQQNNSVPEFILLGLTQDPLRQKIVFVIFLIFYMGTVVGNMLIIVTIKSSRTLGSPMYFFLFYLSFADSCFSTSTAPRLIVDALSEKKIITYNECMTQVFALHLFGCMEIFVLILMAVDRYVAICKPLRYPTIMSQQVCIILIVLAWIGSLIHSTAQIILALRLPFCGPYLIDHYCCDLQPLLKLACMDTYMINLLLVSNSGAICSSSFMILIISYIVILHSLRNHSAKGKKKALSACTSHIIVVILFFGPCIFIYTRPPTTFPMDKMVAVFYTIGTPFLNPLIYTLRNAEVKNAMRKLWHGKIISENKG
Put shortly: as §1

These results are taken from the M2OR odorant receptor database.

This is a selection; strong and weak results do not stand in their true shares. The calls were merged from several studies; some rest on single wells. The list shows a part of the results. The list shows a part of the results.
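Also: active if original authors judged signal statistically different from baseline.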

As for `CC(C)C(=O)O`, the “odorant receptor agonist call” value in experiment [1], in experiment [2], in experiment [3], in experiment [4], in [5] and in experiment [6] was “inactive” throughout. For the same molecule, the “odorant receptor agonist call” value in experiment [7], in experiment [8], in [9], in [10], in [11] and in experiment [12] was “inactive” throughout. Further, the “odorant receptor agonist call” value in experiment [13], in experiment [14] and in experiment [15] was “inactive” throughout.

As for `CC(=O)C(C)=O`, the “odorant receptor agonist call” value in experiment [1], in [2], in experiment [3], in [4], in experiment [5] and in experiment [6] was “inactive” throughout. For the same molecule, the “odorant receptor agonist call” value in experiment [7], in experiment [8], in experiment [9], in experiment [10], in experiment [11] and in [12] was “inactive” in each case. The “odorant receptor agonist call” value in experiment [13], in experiment [14] and in experiment [15] was “inactive” each time.

For `CCCCCC(C)=O`, the “odorant receptor agonist call” value in experiment [1], in experiment [2], in experiment [3], in experiment [4], in [5] and in [6] was “inactive” each time. The “odorant receptor agonist call” value in experiment [7], in experiment [10], in [11], in experiment [13] and in experiment [14] was “inactive” throughout. For the same molecule, the “odorant receptor agonist call” value in experiment [15] was “active”.

`CC1COCc2cc3c(cc21)C(C)(C)C(C)C3(C)C` (configuration not stated): the “odorant receptor agonist call” value in [1], in experiment [3], in [4], in experiment [6], in [8] and in [10] was “active” each time. In addition, the “odorant receptor agonist call” value in [11], in experiment [12] and in experiment [15] was “active” throughout. Further, the “odorant receptor agonist call” value in experiment [2], in experiment [5], in experiment [7], in experiment [9], in experiment [13] and in experiment [14] was “inactive” in each case.
